Results are given in words; binding and its absence hold for the method and conditions named. Some entries that bind do so weakly or less than the wild type.
Legend:
[1] = biological target: T1, kringle (KNG) domain of FXII (UniProt P00748); assay: western blot of FXII domains probed with N4-38, anti-6xHIS-HRP detection
T1 sequence (looked up): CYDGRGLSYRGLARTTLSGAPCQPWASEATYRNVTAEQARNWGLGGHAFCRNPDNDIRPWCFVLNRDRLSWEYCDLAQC

[2] = biological target: T2, fibronectin domain type II (FBII) of FXII (UniProt P00748); assay: as above
T2 sequence (looked up): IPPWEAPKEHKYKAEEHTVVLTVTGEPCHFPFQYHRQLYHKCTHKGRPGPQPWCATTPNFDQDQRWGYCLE

[3] = biological target: T3, denatured human FXII (human) (UniProt P00748); assay: dot blot on NC membrane, anti-6HIS-HRP detection
T3 sequence (looked up): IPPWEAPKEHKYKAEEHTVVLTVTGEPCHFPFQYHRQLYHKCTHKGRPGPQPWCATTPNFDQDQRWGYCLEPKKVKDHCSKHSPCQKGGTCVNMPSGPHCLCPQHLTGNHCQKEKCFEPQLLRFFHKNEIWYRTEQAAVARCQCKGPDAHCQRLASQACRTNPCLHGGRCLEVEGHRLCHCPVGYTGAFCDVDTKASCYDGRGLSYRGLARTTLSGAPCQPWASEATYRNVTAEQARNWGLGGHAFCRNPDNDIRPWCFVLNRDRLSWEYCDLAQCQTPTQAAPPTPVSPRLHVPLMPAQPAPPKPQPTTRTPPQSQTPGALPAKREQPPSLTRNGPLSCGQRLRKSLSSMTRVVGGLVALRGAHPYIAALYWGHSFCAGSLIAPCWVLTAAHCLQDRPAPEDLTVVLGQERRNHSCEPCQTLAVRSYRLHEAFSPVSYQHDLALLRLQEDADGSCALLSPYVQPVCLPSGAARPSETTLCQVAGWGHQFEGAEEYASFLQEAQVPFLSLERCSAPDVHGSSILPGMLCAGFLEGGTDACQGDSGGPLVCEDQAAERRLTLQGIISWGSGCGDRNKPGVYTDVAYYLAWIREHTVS

Measured: binding

B1: nanobody N4-38 (VHH)
VHH: QVQLVESGGGLVQAGGSLRLSCAASGRTGNAYRMGWFRQAPGKEREFVAAISWNGDSTNYADSVKGRFTISRDNAKNTVYLQMNSLKPEDTAVYYCAVVKGIGVPPNMYDYWGQGTQVTVSS
notes: Alpaca nanobody expressed in E. coli from PET26b; also called N38; N4-38 antibody
binds: all assays above

— patent US20230295343A1 (NINGBO COMGEN BIOTECH, published 2023)
